These are yes or no findings as the source states them, for the method shown. Binding seen in cells or lysates may run through a third protein. Some binding calls cover weakened binding; strength is not graded here. For part of these data: Tags and fused reporters may be left off the sequences shown.
Columns and labels:
[1] = target: Flag-tagged PD-L1 (human) (UniProt Q9NZQ7); assay: co-IP; HEK293T cells transfected with Flag-tagged PD-L1 and Myc-tagged PPM1B for 48 h; immunoprecipitation followed by immunoblotting
[2] = target: endogenous PD-L1 (human (endogenous in H460 and A549)) (UniProt Q9NZQ7); assay: co-IP; co-immunoprecipitation with PD-L1 from A549 and H460 cells (PD-L1 overexpressing vector or PD-L1 siRNA, 24 h); immunoblot for PPM1B and p38 MAPK; also after 24 h treatment with rhPD-1 (1 μg/ml)
[3] = target: PD-L1 overexpressed in A549 cells (human) (UniProt Q9NZQ7); assay: as above

Protein sequences, listed by entry. Tags and fused reporters are not part of them. Residues count along the entry.
UniProt Q9NZQ7, residues 19-290: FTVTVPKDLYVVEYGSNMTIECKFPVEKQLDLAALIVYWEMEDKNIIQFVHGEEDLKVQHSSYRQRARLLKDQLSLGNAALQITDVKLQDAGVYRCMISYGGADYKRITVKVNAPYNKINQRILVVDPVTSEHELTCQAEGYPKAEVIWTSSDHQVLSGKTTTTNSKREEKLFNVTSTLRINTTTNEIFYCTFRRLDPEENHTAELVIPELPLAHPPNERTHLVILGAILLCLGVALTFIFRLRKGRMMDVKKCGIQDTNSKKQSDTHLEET

| binding [1] | binding [2] | binding [3] | Binder |
| --- | --- | --- | --- |
| binds | – | – | Myc-tagged PPM1B (enzyme, UniProt O75688 1-479) MGAFLDKPKTEKHNAHGAGNGLRYGLSSMQGWRVEMEDAHTAVVGIPHGLEDWSFFAVYDGHAGSRVANYCSTHLLEHITTNEDFRAAGKSGSALELSVENVKNGIRTGFLKIDEYMRNFSDLRNGMDRSGSTAVGVMISPKHIYFINCGDSRAVLYRNGQVCFSTQDHKPCNPREKERIQNAGGSVMIQRVNGSLAVSRALGDYDYKCVDGKGPTEQLVSPEPEVYEILRAEEDEFIILACDGIWDVMSNEELCEYVKSRLEVSDDLENVCNWVVDTCLHKGSRDNMSIVLVCFSNAPKVSDEAVKKDSELDKHLESRVEEIMEKSGEEGMPDLAHVMRILSAENIPNLPPGGGLAGKRNVIEAVYSRLNPHRESDGASDEAEESGSQGKLVEALRQMRINHRGNYRQLLEEMLTSYRLAKVEGEESPAEPAATATSSNSDAGNPVTMQESHTESESGLAELDSSNEDAGTKMSGEKI |
| – | binds | binds | endogenous PPM1B (enzyme, UniProt O75688 1-479) MGAFLDKPKTEKHNAHGAGNGLRYGLSSMQGWRVEMEDAHTAVVGIPHGLEDWSFFAVYDGHAGSRVANYCSTHLLEHITTNEDFRAAGKSGSALELSVENVKNGIRTGFLKIDEYMRNFSDLRNGMDRSGSTAVGVMISPKHIYFINCGDSRAVLYRNGQVCFSTQDHKPCNPREKERIQNAGGSVMIQRVNGSLAVSRALGDYDYKCVDGKGPTEQLVSPEPEVYEILRAEEDEFIILACDGIWDVMSNEELCEYVKSRLEVSDDLENVCNWVVDTCLHKGSRDNMSIVLVCFSNAPKVSDEAVKKDSELDKHLESRVEEIMEKSGEEGMPDLAHVMRILSAENIPNLPPGGGLAGKRNVIEAVYSRLNPHRESDGASDEAEESGSQGKLVEALRQMRINHRGNYRQLLEEMLTSYRLAKVEGEESPAEPAATATSSNSDAGNPVTMQESHTESESGLAELDSSNEDAGTKMSGEKI |
